Assay results published in the supplement of paper PMC7752906.
Where a name gives a salt, the structure may show the parent alone. This is one part of the list. This data set is noisy: repeats of one test often differ as much as different tests do.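 Wells held roughly 40 S. mansoni schistosomula, imaged in bright field over time against wells given 0.1% DMSO. The paper defines hits as drugs with a Mahalanobis distance of at least 2.47, three standard deviations above the DMSO control mean. Degeneracy is the proportion of worms classified as opaque.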

System: Schistosoma mansoni schistosomula
Experiment: Mahalanobis distance of static-rate-frequency phenotype descriptors from DMSO controls (dimensionless); higher = stronger phenotypic change versus DMSO
Conditions: 10 µM; 72 h

Row | SMILES | Mahalanobis distance
1 | CNC(C)(C)Cc1ccccc1 [Mephentermine Sulfate] | inactive: 2.03
2 | NCCCNCCSP(=O)(O)O [Amifostine] | inactive: 1.51
3 | O=c1[nH]c2ccccc2n1C1CCN(CCCC(c2ccc(F)cc2)c2ccc(F)cc2)CC1 [pimozide] | inactive: 2.25
4 | CN(C)C(=O)Oc1ccc[n+](C)c1 [Pyridostigmine Bromide] | inactive: 2.08
5 | C#CCN(C)[C@H](C)Cc1ccccc1 [Selegiline] | inactive: 1.9
6 | CCCC(C)(COC(N)=O)COC(=O)NC(C)C (configuration not stated) [Carisoprodol] | inactive: 1.47
7 | COC(C)(C)CCC[C@H](C)C/C=C/C(C)=C/C(=O)OC(C)C [Methoprene (s)] | inactive: 2.33
8 | CC(O)CN1CCN(CC(=O)[O-])CCN(CC(=O)[O-])CCN(CC(=O)[O-])CC1.[Gd+3] (configuration not stated) [Gadoteridol] | inactive: 1.1
9 | N[C@@H]1C[C@H]1c1ccccc1.N[C@H]1C[C@@H]1c1ccccc1 [Tranylcypromine] | inactive: 1.62
10 | C#CC(C)(O)CC (configuration not stated) [Meparfylon] | inactive: 1.29
11 | C[C@@H]1CN([C@H]2CC[C@](C#N)(c3ccc(F)cc3)CC2)CC[C@]1(C(=O)O)c1ccccc1 [Levocabastine hcl] | inactive: 1.37
12 | CCC1(CC)C(=O)NC(=O)NC1=O [Barbital] | inactive: 1.3
13 | CCC(=O)O[C@H]1CC[C@H]2[C@@H]3CCC4=CC(=O)CC[C@]4(C)[C@H]3CC[C@]12C [Testosterone Propionate] | active: 2.49
14 | COc1ccc(OC)c(C(O)C(C)N)c1 (configuration not stated) [Methoxamine] | inactive: 2.02
15 | CCOP(=S)(OCC)Oc1nc(Cl)c(Cl)cc1Cl [Chlorpyrifos] | active: 2.65
16 | CNC(=O)Oc1ccccc1OC(C)C [Propoxur] | inactive: 2.18
17 | CC(=O)NC1CCSC1=O (configuration not stated) [Citiolone] | inactive: 1.42
18 | c1ccc2c(c1)sc1ccccc12 [Dibenzothiophene] | inactive: 1.42
19 | CCOP(=S)(OCC)Oc1ccc2c(C)c(Cl)c(=O)oc2c1 [Coumophos] | inactive: 1.96

Three records picked at random from those above:
Row | SMILES | Mahalanobis distance
18 | c1ccc2c(c1)sc1ccccc12 [Dibenzothiophene] | inactive: 1.42
16 | CNC(=O)Oc1ccccc1OC(C)C [Propoxur] | inactive: 2.18
7 | COC(C)(C)CCC[C@H](C)C/C=C/C(C)=C/C(=O)OC(C)C [Methoprene (s)] | inactive: 2.33

Further results follow.

Row | SMILES | Mahalanobis distance
20 | CCC(=O)O[C@](Cc1ccccc1)(c1ccccc1)[C@H](C)CN(C)C [Propoxyphene] | inactive: 1.74
21 | C=C1C[C@@H]2[C@H](CC[C@]3(C)C(=O)CC[C@@H]23)[C@@]2(C)C=CC(=O)C=C12 [Exemestane] | active: 2.94
22 | CCOc1cc(C=O)ccc1O [Ethyl Vanillin] | inactive: 1.21
23 | C[C@]12C/C(=C/O)C(=O)C[C@@H]1CC[C@@H]1[C@@H]2CC[C@@]2(C)[C@H]1CC[C@]2(C)O [Oxymetholone] | active: 2.92
24 | CC(C)c1cccc(C(C)C)c1O [Propofol] | active: 3.08
25 | CN1C[C@H](CNC(=O)OCc2ccccc2)C[C@@H]2c3cccc4c3c(cn4C)C[C@H]21 [Metergoline] | inactive: 1.92
26 | Oc1ccc2c3c1O[C@H]1[C@@H](O)CC[C@@]4(O)[C@@H](C2)N(CC2CCC2)CC[C@]314 [Nalbuphine] | inactive: 1.88
27 | CC1C=CC=CCCC=CC=CC=CC=CC(OC2OC(C)C(O)C(N)C2O)CC2OC(O)(CC(O)C(O)CCC(O)CC(O)CC(O)CC(=O)OC(C)C(C)C1O)CC(O)C2C(=O)O (configuration not stated) [Nystatin] | inactive: 1.51
28 | C[C@]12CC[C@H](O)CC1=CC[C@@H]1[C@@H]2CC[C@]2(C)C(=O)CC[C@@H]12 [Prasterone] | active: 2.85
29 | COc1cc2c(c(OC)c1OC)-c1ccc(OC)c(=O)cc1[C@@H](NC(C)=O)CC2 [colchicine] | active: 3.04
30 | CC[C@@H](CO)NC(=O)[C@@H]1C=C2c3cccc4c3c(cn4C)C[C@H]2N(C)C1 [Methysergide Maleate] | active: 3.48
31 | c1ccc2c(c1)OCC(C1=NCCN1)O2 (configuration not stated) [Idazoxan Hydrochloride] | inactive: 1.97
32 | CCCCOC(=O)c1ccccc1C(=O)OCCCC [Dibutyl Phthalate] | inactive: 1.89
33 | O=C(O)c1nn(Cc2ccc(Cl)cc2Cl)c2ccccc12 [Lonidamine] | inactive: 1.62
34 | COc1ccc2c(c1OC)C(=O)O[C@@H]2[C@H]1c2cc3c(cc2CCN1C)OCO3 [Hydrastine (1r, 9s)] | inactive: 2.04
35 | Cc1nnc2n1-c1ccc(Cl)cc1C(c1ccccc1)=NC2 [Alprazolam] | inactive: 1.81
36 | NCC1(CC(=O)O)CCCCC1 [Gabapentin] | inactive: 1.44
37 | O=[N+]([O-])O[C@H]1CO[C@H]2[C@@H]1OC[C@H]2O[N+](=O)[O-] [Isosorbide Dinitrate] | inactive: 1.9
38 | CC(N)C(O)c1ccccc1 (configuration not stated) [Phenylpropanolamine] | active: 3.58

Row | SMILES | Mahalanobis distance
39 | CCOC(=O)c1cncn1[C@H](C)c1ccccc1 [Etomidate] | active: 2.83
40 | O=[N+]([O-])C(Br)(CO)CO [Bronopol] | inactive: 1.99
41 | CN[C@@H](C)[C@@H](O)c1ccccc1 [Pseudoephedrine] | inactive: 2.38
42 | CN1[C@@H]2C[C@@H](OC(=O)[C@H](CO)c3ccccc3)C[C@H]1[C@@H]1O[C@@H]12 [Scopolamine] | inactive: 1.66
43 | CN1C[C@H](C(=O)N[C@]2(C)O[C@@]3(O)[C@@H]4CCCN4C(=O)[C@H](Cc4ccccc4)N3C2=O)C=C2c3cccc4[nH]cc(c34)C[C@H]21 [Ergotamine] | active: 2.49
44 | O=C1CC[C@@]2(O)[C@H]3Cc4ccc(O)c5c4[C@@]2(CCN3CC2CC2)[C@H]1O5 [Naltrexone Hydrochloride] | inactive: 1.93
45 | O=C1Nc2ccc(Cl)cc2C(c2ccccc2Cl)=NC1O (configuration not stated) [Lorazepam] | active: 3.51
46 | NCc1cccnc1 [Picolamine] | inactive: 1.87
47 | CC(N)Cc1ccc(O)cc1 (configuration not stated) [Hydroxyamphetamine Hydrobromide] | active: 2.99
48 | O=c1c2ccccc2[se]n1-c1ccccc1 [Ebselen] | active: 2.78
49 | CC(=O)O[C@H]1C[C@@H]2CC[C@@H]3[C@H](CC[C@@]4(C)[C@H]3C[C@H]([N+]3(C)CCCCC3)[C@@H]4OC(C)=O)[C@@]2(C)C[C@@H]1[N+]1(C)CCCCC1 [Pancuronium Bromide] | inactive: 1.78
50 | O=c1n(Cl)c(=O)n(Cl)c(=O)n1Cl [Symclosene] | inactive: 1.82
51 | C=CCN1CC[C@]23c4c5ccc(O)c4O[C@H]2C(=O)CC[C@@]3(O)[C@H]1C5 [Naloxone] | inactive: 1.61
52 | C=CCN1CC[C@]23c4c5ccc(O)c4O[C@H]2C(=O)CC[C@@]3(O)[C@H]1C5 [Naloxone Hydrochloride] | inactive: 1.71
53 | Cc1cccc(C)c1NC(=O)CN1CCCC1=O [Nefiracetam] | inactive: 1.2
54 | CC[C@@H](C(=O)[C@@H](C)[C@@H](O)[C@H](C)[C@@H]1O[C@@H]([C@@H](CC)C(=O)O)CC[C@@H]1C)[C@H]1O[C@]2(C=C[C@@H](O)[C@]3(CC[C@@](C)([C@H]4CC[C@](O)(CC)[C@H](C)O4)O3)O2)[C@H](C)C[C@@H]1C [Salinomycin, Sodium] | active: 2.51
55 | CCC1(c2ccccc2)C(=O)NC(=O)NC1=O [Phenobarbital] | inactive: 1.38
56 | C[C@]12CCC(=O)C=C1C=C[C@@H]1[C@@H]2CC[C@@]2(C)[C@H]1CC[C@@]2(O)CCC(=O)O [Canrenoic Acid, Potassium Salt] | inactive: 1.5
57 | S=C=NCc1ccccc1 [Benzyl Isothiocyanate] | inactive: 1.91
